# Results of single-concentration screens

The chains behind the UniProt entries cited, without tags or fusion partners. Residues count along the entry.
UniProt Q8IDJ8, 1-583: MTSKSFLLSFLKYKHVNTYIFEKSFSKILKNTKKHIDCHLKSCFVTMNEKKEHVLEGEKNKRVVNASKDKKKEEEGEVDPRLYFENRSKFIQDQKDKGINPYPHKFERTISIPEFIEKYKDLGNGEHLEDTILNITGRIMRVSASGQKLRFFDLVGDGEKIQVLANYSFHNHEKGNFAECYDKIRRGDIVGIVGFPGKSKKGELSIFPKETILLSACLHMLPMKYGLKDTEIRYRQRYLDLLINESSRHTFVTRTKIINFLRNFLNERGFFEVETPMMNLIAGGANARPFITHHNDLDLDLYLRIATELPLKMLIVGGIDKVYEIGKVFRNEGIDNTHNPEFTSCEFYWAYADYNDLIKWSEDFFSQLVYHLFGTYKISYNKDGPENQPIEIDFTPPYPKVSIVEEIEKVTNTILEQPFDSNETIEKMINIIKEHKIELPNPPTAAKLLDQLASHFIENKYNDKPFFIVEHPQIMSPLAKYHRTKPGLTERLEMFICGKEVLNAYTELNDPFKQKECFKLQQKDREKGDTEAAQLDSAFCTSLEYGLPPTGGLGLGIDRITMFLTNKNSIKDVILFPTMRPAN
UniProt P9WFT3, whole entry: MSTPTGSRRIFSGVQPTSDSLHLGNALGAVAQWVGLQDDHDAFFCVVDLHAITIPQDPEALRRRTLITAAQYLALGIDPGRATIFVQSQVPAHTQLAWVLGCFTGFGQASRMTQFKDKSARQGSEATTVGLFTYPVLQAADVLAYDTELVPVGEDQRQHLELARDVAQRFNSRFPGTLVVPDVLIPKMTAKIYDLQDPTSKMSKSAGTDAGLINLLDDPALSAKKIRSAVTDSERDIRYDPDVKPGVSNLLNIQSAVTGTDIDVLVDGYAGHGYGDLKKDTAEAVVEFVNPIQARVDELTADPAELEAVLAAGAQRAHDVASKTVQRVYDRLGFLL

Source: ChEMBL document CHEMBL3988442, “University of Dundee, Small-Polar-MMV Screening Library” (2021).

Each number is a percent effect as filed. The record does not define 0% and 100%; most values in the screen are far below 50% and negative numbers occur (in some assays of this library far below -100). This is an unselected part of the compounds tested. A dash means the value is not listed here; it may have been measured.

A: 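Enzyme assay of the cytosolic lysyl-tRNA synthetase in 384-well plates, read by luminescence. Target: Lysine-tRNA ligase, Plasmodium falciparum 3D7 (UniProt Q8IDJ8). Tested at 30 µM. Direction is inferred from only a few compounds that gave an IC50; most scored high, so higher reads as stronger inhibition. Size under these conditions: about 69,000 compounds, about 49 of them at 50% or above in at least one test.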
B: 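Enzyme assay of tryptophanyl-tRNA synthetase; the read-out is not stated. Target: Tryptophan-tRNA ligase, Mycobacterium tuberculosis (UniProt P9WFT3). Concentration: 10 µM. Direction is not recorded; retested compounds ran higher, which suggests that high means inhibition. About 65,000 compounds were tested under these conditions; 0.098% (about 64) showed 50% or more at least once.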

SMILES,A,B
CC(=O)N1CCN(C(=O)c2snnc2C)[C@H]2CS(=O)(=O)C[C@H]21,4.234,-6.876
CCN(Cc1cccc(F)c1)Cc1nc2c(cnn2C)c(=O)[nH]1,-0.8534,12.04
O=C(Cc1csc(-c2ccco2)n1)N1CCN(c2ccccc2O)CC1,1.258,-6.773
CC(=O)N(C)C1CCN(C(=O)NCCc2cc(F)ccc2F)CC1,-0.1609,0.1555
CSc1nccc(N2CCC(NCc3ccc4nsnc4c3)CC2)n1,2.002,2.449
CCc1ncc(C(=O)N2C[C@@H](C)O[C@@H](C)C2)cn1,4.829,-0.1569
Cc1ccc(CN2CCOC3(CCCN(C(=O)c4ccco4)C3)C2)o1 (stereo unspecified),6.046,-1.766
Cc1cnn(C2CN(CC(=O)NCCc3cccs3)C2)c1,1.045,2.18
CC(C)c1nnc2n1CCN(CCCS(=O)(=O)c1ccccc1)C2,3.188,0.2398
CC(=O)N1CCOC2(CCCN(C(=O)c3ccc(Cl)cc3)C2)C1 (stereo unspecified),1.052,0.9382
c1cc(CN2CCCn3cnc(COCC4CC4)c3C2)co1,0.9981,-5.534
O=C(Nc1nnn[nH]1)c1cc(-c2ccc(Br)s2)n[nH]1,4.053,6.068
O=C(O)c1cc(S(=O)(=O)Nc2cc(Cl)ccc2F)cc2c1OCCO2,-3.693,24.92
COc1ccc(-c2ccccc2CN)c(OC)c1,-5.43,-6.293
COC(=O)[C@H]1CCCCN1C(=O)c1cccc(-n2cccn2)c1,5.523,-2.387
NCCC1CN(c2nc(-c3ccccc3)nc3c2CCNC3)CCO1 (stereo unspecified),4.466,-0.9428
Cc1noc(C)c1CC(=O)N1CCCN(C)c2ccc(Cl)cc21,2.443,3.312
O=C(N1CCCCC1)N1CCCC1c1nnc2n1CCNC2 (stereo unspecified),-5.976,12.71
CC(CNS(=O)(=O)CCCC#N)c1ccsc1 (stereo unspecified),4.061,0.819
COc1ccc(NC(=O)Cc2c(C)nn(C)c2C)cc1F,0.9393,6.442
CNC(=O)NCC1CCC2(CCN(C(=O)c3ccccc3)CC2)CO1 (stereo unspecified),2.506,-
CCOC(=O)CNC(=O)NCc1cccn1Cc1ccccc1F,1.326,-1.159
CCN(CC)Cc1nc(Cc2cccc(C(F)(F)F)c2)no1,6.031,2.662
NS(=O)(=O)CCCNC(=O)c1cnc(-c2ccsc2)s1,6.587,4.707
CN1CCOC(CNCc2nc(-c3ccoc3)no2)C1 (stereo unspecified),-2.019,2.183
CCc1noc(CNCC2CCCN2c2cccnn2)n1 (stereo unspecified),0.2167,-2.006
O=C1[C@H]2CN(CC3CCOCC3)C[C@H]2CN1c1ccsc1,2.594,-6.587
NC(=O)C1CN(c2ncnc3c2Cc2ccccc2OC3)CCO1 (stereo unspecified),3.891,5.644
OCCN1CCN(CC(O)c2ccc(OC(F)(F)F)cc2)CC1 (stereo unspecified),-0.1906,-3.249
Cn1cc(CN2CC[C@H](O)[C@@H]2Cc2ccncc2)cn1,-7.905,-3.4
CCN(CC)C(=O)c1ccc(Cl)c(NC(=O)c2csnn2)c1,4.587,-0.6265
CC(C)c1nccc([C@@H]2C[C@@H]3CCN(Cc4ccoc4)C[C@H]3O2)n1,6.496,0.3487
Cc1nc(C)c(CNC(=O)NC2CC(C)(C)OC2(C)C)s1 (stereo unspecified),-4.965,0.2601
O=C1CCN(C(=O)C2(c3ccc(F)cc3)CCCCC2)CCN1,-1.056,-0.9909
CC(C)CN1C(=O)CO[C@@H]2CN(C(=O)CC(F)(F)F)C[C@H]21,2.325,-2.467
Cc1nc(CO[C@H]2CN(C(=O)c3cnoc3C)[C@@H]3COC[C@H]23)cs1,3.536,-1.881
O=C(Nc1cnn(CC(=O)N2CCCCO2)c1)c1ccsc1,0.5548,-1.147
CCOCCC1(C(=O)N2CCCC(c3ncc[nH]3)C2)CCCC1 (stereo unspecified),5.637,0.136
CC1(C)CC1C(=O)NS(=O)(=O)Cc1cc(-c2ccccc2)no1 (stereo unspecified),-1.128,-0.1652
COc1ccccc1CC(=O)N1CC[C@H](O)[C@]2(CCCO2)C1,4.78,-
CCc1nnc(CN2CCCN(C(=O)c3ccccn3)CC2)o1,5.648,-2.848
O[C@]12CCNC[C@H]1CN(c1nccc3ccccc13)CC2,-3.661,20.3
CCn1cc(CN2CCCN(C(=O)Cc3cccs3)CC2)cn1,11.25,0.236
COc1ccc(NC(=O)N2CCCC(CO)C2)c(C)c1 (stereo unspecified),4.97,-0.9031
O=C(NC1CCN(C2CC2)CC1)c1cc(Cl)ccc1-n1cnnn1,-1.925,6.66
CN(Cc1cn(CC2CCNCC2)nn1)CC1CCCCO1 (stereo unspecified),-0.09,-0.07127
CC(C)(C)NC(=O)CN1CCN(C(=O)Nc2ccc(F)cc2F)CC1,-4.265,-5.51
Cc1ccc(CN2CC3(CCN(C(=O)C4CC4)CC3)CC2C(=O)O)o1 (stereo unspecified),0.2908,-1.71
CNC(=O)c1cccc(CNC(C)c2cc(C)ccc2OC(F)F)c1 (stereo unspecified),1.964,-12.49
CN(C)C(=O)c1cn[nH]c1C1CCCN1Cc1nccn1C (stereo unspecified),-2.546,9.428
Cc1cncc(C(=O)N2CCCC(O)(CN(C)C)CC2)c1 (stereo unspecified),3.265,2.993
CCC[C@@H]1CN(C(=O)c2cnc3ccccc3c2)C[C@H]1NS(C)(=O)=O,0.8652,1.718
COc1ccc(C2=CCN(C(=O)C3CCC3)CC2)cc1,0.3174,-3.888
CC(C)c1cc(C2CCN(C(=O)Cn3cncn3)CC2)[nH]n1,-5.361,-1.782
CNC(=O)Cc1noc(-c2cc3c(s2)CCC(C)(C)C3)n1,2.212,-3.204
CCc1c(C)sc(NC(=O)CN2CCN(CC)CC2)c1C(=O)OC,2.24,-2.844
Cc1cnn(CC2CCCN2Cc2noc(CC(C)C)n2)c1 (stereo unspecified),2.455,0.1278
c1cnn(Cc2ccc(CN3CCC4(CCCNC4)C3)cc2)c1 (stereo unspecified),1.802,0.07246
Cc1cnn(-c2cccc(N3CCN(c4cc(C)nc(C)n4)CC3)n2)c1,-3.706,2.293
CC(C)c1cnc(CN2C(=O)CC3(CCSC3)C2=O)o1 (stereo unspecified),-1.281,-3.964
CN(C)C[C@H]1OC[C@@H]2CN(C(=O)NCc3cccnc3)CC[C@@H]21,1.817,-8.966
CS(=O)(=O)N1CCC2(CC1)CC(NCc1ccco1)c1ccccc12 (stereo unspecified),2.905,-
COc1ccc(C(=O)N2CCC(Oc3cccc(C)c3)(C(=O)O)CC2)o1,-3.35,3.082
Cc1ccc(C(=O)NCCCN(C)S(C)(=O)=O)c(=O)[nH]1,14.62,-3.431
Cc1nc(N2CCCC2)nc2c1CN(C(=O)N(C)C)CC2,-1.325,-1.493
Cc1cnn(CC2CN(Cc3nc4ccccc4o3)CCO2)c1 (stereo unspecified),1.775,-1.254
CCCC(NC(=O)c1ccc(C)cc1C)c1nnn[nH]1 (stereo unspecified),4.392,4.996
Cc1cccc(S(=O)(=O)N2CC[C@H]3[C@H]2CCN3c2ncccn2)c1,1.508,-0.0969
N#Cc1cccnc1Oc1cc(F)c(CN2CCCC2)c(Cl)c1,5.511,3.084

For reference, 6 entries once more:

SMILES	A	B
CCc1noc(CNCC2CCCN2c2cccnn2)n1 (stereo unspecified)	0.2167	-2.006
CC(C)CN1C(=O)CO[C@@H]2CN(C(=O)CC(F)(F)F)C[C@H]21	2.325	-2.467
CCCC(NC(=O)c1ccc(C)cc1C)c1nnn[nH]1 (stereo unspecified)	4.392	4.996
CN(C)C[C@H]1OC[C@@H]2CN(C(=O)NCc3cccnc3)CC[C@@H]21	1.817	-8.966
COc1ccccc1CC(=O)N1CC[C@H](O)[C@]2(CCCO2)C1	4.78	-
Cc1cnn(CC2CCCN2Cc2noc(CC(C)C)n2)c1 (stereo unspecified)	2.455	0.1278